Experiment: general procedure: Fmoc solid-phase peptide synthesis; Rink amide resin (0.26 mmol/g); HCTU/DIEA
Details: late stage modification step

Row | Substance | step yield (thioether ring) [%] | step yield [%]
1 | TAMRA labeled CP1-L1C-C6F5 | 31 | –
2 | cyclic peptide 2-TAMRA | – | 19

Reference: paper PMC9579194 (Nature Communications, 2022)
